Results are given in words; binding and its absence hold for the method and conditions named. In cells and extracts the contact can be indirect. Some results given as binding are weak or reduced against the parent protein; the word gives no strength. One block for each molecule: values may come before it.
What was measured:
[1] = target: T1, CARM1 in the HEK-293T cell line (UniProt Q86X55); experiment: co-IP; HEK-293T cell line; whole-cell extract, protein A&G beads, Western blot
T1 sequence: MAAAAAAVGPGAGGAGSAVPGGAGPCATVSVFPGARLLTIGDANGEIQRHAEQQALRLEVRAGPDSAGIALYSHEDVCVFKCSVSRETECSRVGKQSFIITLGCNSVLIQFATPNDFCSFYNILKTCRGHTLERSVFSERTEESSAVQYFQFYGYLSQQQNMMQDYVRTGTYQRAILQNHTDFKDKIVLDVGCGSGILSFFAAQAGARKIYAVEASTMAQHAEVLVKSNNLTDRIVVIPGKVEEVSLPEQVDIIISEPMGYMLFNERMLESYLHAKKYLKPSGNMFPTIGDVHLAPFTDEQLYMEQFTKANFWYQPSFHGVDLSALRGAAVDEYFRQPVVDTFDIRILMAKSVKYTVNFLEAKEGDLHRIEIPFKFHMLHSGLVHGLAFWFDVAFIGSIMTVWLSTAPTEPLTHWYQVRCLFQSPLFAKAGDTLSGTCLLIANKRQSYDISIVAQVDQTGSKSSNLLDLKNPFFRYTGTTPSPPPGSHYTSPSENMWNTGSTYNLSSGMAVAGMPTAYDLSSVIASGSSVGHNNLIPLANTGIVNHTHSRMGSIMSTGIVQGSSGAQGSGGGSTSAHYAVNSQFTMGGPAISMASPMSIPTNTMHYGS

The chains behind the UniProt entries cited, without tags or fusion partners.
UniProt P62137: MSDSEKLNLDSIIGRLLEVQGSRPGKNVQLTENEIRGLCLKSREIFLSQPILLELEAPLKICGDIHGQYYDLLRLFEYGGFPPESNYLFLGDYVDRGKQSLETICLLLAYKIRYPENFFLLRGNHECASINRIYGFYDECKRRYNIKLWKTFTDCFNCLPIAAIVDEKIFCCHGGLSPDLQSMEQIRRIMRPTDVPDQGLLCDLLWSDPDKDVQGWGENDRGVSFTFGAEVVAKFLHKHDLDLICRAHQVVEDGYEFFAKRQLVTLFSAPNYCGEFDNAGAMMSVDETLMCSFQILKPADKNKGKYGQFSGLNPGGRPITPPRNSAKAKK
UniProt P62136: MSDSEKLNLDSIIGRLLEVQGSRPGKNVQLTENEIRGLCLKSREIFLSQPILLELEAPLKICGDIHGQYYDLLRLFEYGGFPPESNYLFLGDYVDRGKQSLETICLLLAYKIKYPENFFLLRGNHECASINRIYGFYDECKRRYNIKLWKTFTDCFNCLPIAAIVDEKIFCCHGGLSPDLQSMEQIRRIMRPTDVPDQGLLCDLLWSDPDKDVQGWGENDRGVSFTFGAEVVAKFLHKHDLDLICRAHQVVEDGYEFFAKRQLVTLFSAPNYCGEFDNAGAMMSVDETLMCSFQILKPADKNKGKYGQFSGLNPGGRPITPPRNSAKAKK

[2] = target: T2, Coactivator-associated arginine methyltransferase 1 (CARM1), endogenous in MC3T3-E1 and RAW264.7 cells (mouse (endogenous in MC3T3-E1 and RAW264.7)) (UniProt Q9WVG6); experiment: co-IP; whole-cell extracts (Pierce IP lysis buffer) of MC3T3-E1 and RAW264.7 cells, antibody overnight at 4°C, protein A&G beads 4 h at 4°C, Western blot; IP of CARM1 and, in turn, IP of PPP1CA
T2 sequence: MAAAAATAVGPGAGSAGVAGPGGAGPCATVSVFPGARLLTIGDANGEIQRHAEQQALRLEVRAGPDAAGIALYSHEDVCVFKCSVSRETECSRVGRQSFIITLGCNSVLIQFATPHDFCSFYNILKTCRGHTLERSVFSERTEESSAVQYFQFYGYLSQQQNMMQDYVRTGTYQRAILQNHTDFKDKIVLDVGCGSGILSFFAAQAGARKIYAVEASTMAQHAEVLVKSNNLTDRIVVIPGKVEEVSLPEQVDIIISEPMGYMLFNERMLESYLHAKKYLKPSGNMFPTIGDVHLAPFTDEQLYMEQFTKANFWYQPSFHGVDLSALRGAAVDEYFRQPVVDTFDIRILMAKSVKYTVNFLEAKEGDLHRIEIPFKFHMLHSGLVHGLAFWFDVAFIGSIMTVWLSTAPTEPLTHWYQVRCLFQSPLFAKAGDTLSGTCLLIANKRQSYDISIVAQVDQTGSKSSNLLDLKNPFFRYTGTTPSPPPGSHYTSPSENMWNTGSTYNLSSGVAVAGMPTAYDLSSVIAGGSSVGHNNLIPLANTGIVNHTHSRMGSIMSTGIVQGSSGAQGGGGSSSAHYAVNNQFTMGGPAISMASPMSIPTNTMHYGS

[3] = target: PPP1CA (PP-1alpha), endogenous in MC3T3-E1 and RAW264.7 cells (mouse (endogenous in MC3T3-E1 and RAW264.7)) (UniProt P62137); experiment: as above

binding [1]: binds
Molecule: PPP1CA in the HEK-293T cell line (from UniProt P62136 1-330)

binding [2]: binds
Molecule: PPP1CA (PP-1alpha), endogenous in MC3T3-E1 and RAW264.7 cells (from UniProt P62137 1-330)

binding [3]: binds
B1: Coactivator-associated arginine methyltransferase 1 (CARM1), endogenous in MC3T3-E1 and RAW264.7 cells (protein, UniProt Q9WVG6-1 1-608)
chain: T2 sequence

— paper PMC10468565
